The record followed here is PubChem BioAssay AID200 (DTP/NCI, 2004).

The list does not hold the whole screen: it gathers tests that were run many times, whatever their T/C, doses with no T/C, and many T/C values between a quarter and a half above the control. Further doses and runs are listed elsewhere. T/C: endpoint of the treated group in % of that of the vehicle group. Some entries give survivors of the animals treated and no T/C: the source files T/C as zero there, which appears to mark a toxic dose or a test without result, not a measured value. Some survivor counts are full or nearly so, which does not show that the dose was tolerated: the source hardly ever lists a survival T/C far under the control, and the zero likely stands for such cases as well. Counts of survivors are from the toxicity check (mostly the fifth day) where no day follows; animals may have died later. Schedule codes are those of the source, taken here to give the interval after Q, in days (D) or hours (H), and the number of doses after X. Some doses were run more than once; their values stand side by side, smallest first. Where survival is the endpoint, the PubChem record calls one and a half times the control and up active, and a quarter to a half above the control has no call in these data; cut-offs in other NCI protocols can differ. Some T/C values carry the count of animals alive at the toxicity check (mostly the fifth day); without a count, all were alive then.

This assay relates to B6C3F1 mice, B16 melanoma ip, median survival T/C. The assay is described as follows: NCI In Vivo Anticancer Drug Screen. Data for tumor model B16 Melanoma (intraperitoneal) in B6C3F1 mice. As to conditions: T/C endpoint: median survival time, higher T/C = longer survival. An outline of the steps: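 Readout: survival or tumor size in treated mice relative to vehicle controls (T/C). Model uses transplantable tumors grown in mice.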

The mark [1] stands for this setting: dose: 100.0 mg/kg/injection, schedule: Q01DX009 (ip), vehicle: saline with Tween-80.
[2] abbreviates: dose: 200.0 mg/kg/injection, schedule: Q01DX009 (ip), vehicle: saline with Tween-80.
Setting [3] is: dose: 400.0 mg/kg/injection, schedule: Q01DX009 (ip), vehicle: saline with Tween-80.
The mark [4] stands for this setting: dose: 2.0 mg/kg/injection, schedule: Q01DX009 (ip), vehicle: distilled water + Tween-80.
Setting [5] is: dose: 100.0 mg/kg/injection, schedule: Q01DX009 (ip), vehicle: saline.
The mark [6] stands for this setting: dose: 200.0 mg/kg/injection, schedule: Q01DX009 (ip), vehicle: saline.
[7] abbreviates: dose: 24.0 mg/kg/injection, schedule: Q01DX009 (ip), vehicle: distilled water + Tween-80.
[8] abbreviates: dose: 200.0 mg/kg/injection, schedule: Q01DX009 (ip), vehicle: Klucel (hydroxypropylcellulose) (HPC).

For the compound `COc1cc([C@@H]2c3cc4c(cc3[C@@H](OC3OC5CO[C@@H](c6cccs6)OC5C(O)C3O)[C@H]3COC(=O)[C@H]23)OCO4)cc(OC)c1O` (stereo not given in full), the T/C (dose: 2.0 mg/kg/injection, schedule: Q01DX009 (ip), vehicle: saline) was 129 % of control.
Consider `COc1ccc(-c2cc(=O)c3ccc4c(O)cccc4c3o2)cc1`, for which the survivor count was 9 of 10 (dose: 12.5 mg/kg/injection, schedule: Q01DX009 (ip), vehicle: saline with Tween-80); 10 of 10 (dose: 50.0 mg/kg/injection, schedule: Q01DX009 (ip), vehicle: saline with Tween-80); 10 of 10 under setting [1]; 9 of 10 under setting [2]; 10 of 10 under setting [3].
Regarding `CC(C)=CC(=O)OC1C2C(C)=CC(=O)C(O)C2(C)C2C3(O)OCC24C(CC(=O)OC14)C(C)C3O` (stereo not given), the T/C reads like this: (dose: 0.25 mg/kg/injection, schedule: Q01DX009 (ip), vehicle: distilled water + Tween-80) 138 % of control; (dose: 1.0 mg/kg/injection, schedule: Q01DX009 (ip), vehicle: distilled water + Tween-80) 120 [9 of 10 alive], 152, 164, 186 % of control; under setting [4], 162 [9 of 10 alive], 163 [9 of 10 alive], 166 % of control [9 of 10 alive]. Moreover, the survivor count by setting is: under setting [4], 9 of 10; (dose: 4.0 mg/kg/injection, schedule: Q01DX009 (ip), vehicle: distilled water + Tween-80) 1 of 10 and 8 of 10; (dose: 8.0 mg/kg/injection, schedule: Q01DX009 (ip), vehicle: distilled water + Tween-80) 0 of 10.
On to `O=C1C=CC(=O)O1` (tested in a mixture with another compound), for which the T/C runs as follows: (dose: 50.0 mg/kg/injection, schedule: Q04DX003 (ip), vehicle: saline) 137 % of control; under setting [5], 126 % of control; under setting [6], 138 % of control; (dose: 400.0 mg/kg/injection, schedule: Q04DX003 (ip), vehicle: saline) 128 and 136 % of control [8 of 10 alive]. Also, where the note is “dose: 800.0 mg/kg/injection, schedule: Q04DX003 (ip), vehicle: saline”, the survivor count is 8 of 10.
With `CCc1cccc(CC)c1-n1c(C)ccc1-c1ccccc1`, the survivor count by setting is: under setting [2], 10 of 10; under setting [3], 10 of 10.
On to `O=C(Nc1nncs1)c1cccs1`, for which, under setting [3], the T/C was 127 % of control and the survivor count is recorded as 10 of 10.
For `CCCCC(NC(=O)OCc1ccccc1)C(=O)NC(Cc1c[nH]c2ccccc12)C(=O)O` (stereo not given), the survivor count (dose: 400.0 mg/kg/injection, schedule: Q01DX009 (ip), vehicle: Klucel (hydroxypropylcellulose) (HPC)) was 2 of 10.
`CCN(CC)CCNc1ccc(C)c2sc3ccccc3c(=O)c12`: under setting [6], the survivor count is listed as 9 of 10.
For the compound `COc1ccc2c(c1)CCn1c(C)c(COC(=O)NC(C)C)c(COC(=O)NC(C)C)c1-2`, the T/C (dose: 3.0 mg/kg/injection, schedule: Q01DX009 (ip), vehicle: distilled water + Tween-80) is 125 and 126 % of control; the T/C (dose: 6.0 mg/kg/injection, schedule: Q01DX009 (ip), vehicle: distilled water + Tween-80) is 137, 141, 144 % of control; the T/C (dose: 6.25 mg/kg/injection, schedule: Q01DX009 (ip), vehicle: distilled water + Tween-80) was 149 % of control; the T/C (dose: 12.0 mg/kg/injection, schedule: Q01DX009 (ip), vehicle: distilled water + Tween-80) was 132 and 134 % of control; the T/C under setting [7] is 145 % of control. Further, the survivor count runs as follows: under setting [7], 10 of 10 and 9 of 9; (dose: 25.0 mg/kg/injection, schedule: Q01DX009 (ip), vehicle: distilled water + Tween-80) 10 of 10; (dose: 48.0 mg/kg/injection, schedule: Q01DX009 (ip), vehicle: distilled water + Tween-80) 5 of 10; (dose: 50.0 mg/kg/injection, schedule: Q01DX009 (ip), vehicle: distilled water + Tween-80) 10 of 10.
With `CCC1=C[C@H]2CN(CCc3c([nH]c4ccccc34)[C@@](C(=O)OC)(c3cc4c(cc3OC)N(C)[C@H]3[C@@](O)(C(=O)NN)[C@H](O)[C@]5(CC)C=CCN6CC[C@]43[C@@H]65)C2)C1`, where the note is “dose: 62.5 micrograms/kg/injection, schedule: Q01DX009 (ip), vehicle: water”, the T/C was 136 % of control. The survivor count is 1 of 10 (dose: 1000.0 micrograms/kg/injection, schedule: Q01DX009 (ip), vehicle: water) and 4 of 10 (dose: 2000.0 micrograms/kg/injection, schedule: Q01DX009 (ip), vehicle: water).
As to `CC1c2ccccc2CC(CCN(C)C)c2ccccc21` (stereo not given), under setting [1], the survivor count is on record as 5 of 10.
As for `OC(CN1CCCC2CCCCC21)c1cc2ccccc2c2ccccc12` (stereo not given), the survivor count under setting [2] is reported as 7 of 7 and the survivor count under setting [3] is listed as 0 of 7.
Turning to `CCCCCCCCCCCCCCCC(=O)OCC1OC(n2ccc(N)nc2=O)C(O)C1O` (stereo not given), the survivor count runs as follows: (dose: 30.0 mg/kg/injection, schedule: Q01DX009 (ip), vehicle: saline with Tween-80) 10 of 10; (dose: 60.0 mg/kg/injection, schedule: Q01DX009 (ip), vehicle: saline with Tween-80) 10 of 10; (dose: 120.0 mg/kg/injection, schedule: Q01DX009 (ip), vehicle: saline with Tween-80) 9 of 10 and 10 of 10.
For `CC(=O)[O][Pb]([O]C(C)=O)([c]1ccccc1)[c]1ccccc1`, the survivor count (dose: 100.0 mg/kg/injection, schedule: Q01DX009 (ip), vehicle: Klucel (hydroxypropylcellulose) (HPC)) is recorded as 9 of 10 and the survivor count under setting [8] is 6 of 10.
As to `COc1ccc2[nH]c3c(c2c1)CCNC3CC(C)CCC=C(C)C` (stereo not given), the survivor count under setting [8] is 0 of 10.
Consider `c1ccc2[nH]ncc2c1`, for which the survivor count under setting [3] was 2 of 10.
As to `CN(C)CCNc1ccc(NCCN(C)C)c2c1C(=O)c1ccccc1C2=O`, the T/C (dose: 40.0 mg/kg/injection, schedule: Q01DX009 (ip), vehicle: distilled water + Tween-80) is 139 % of control. Besides, the survivor count by setting is: (dose: 80.0 mg/kg/injection, schedule: Q01DX009 (ip), vehicle: distilled water + Tween-80) 10 of 10; (dose: 160.0 mg/kg/injection, schedule: Q01DX009 (ip), vehicle: distilled water + Tween-80) 2 of 10; (dose: 320.0 mg/kg/injection, schedule: Q01DX009 (ip), vehicle: distilled water + Tween-80) 0 of 10.
On to `CCCC(C(=O)OCCN1CCCC12CCCCC2)C1CCCC1` (stereo not given), for which, under setting [5], the survivor count is reported as 10 of 10.
`COc1cccc2c1C(=O)c1c(O)c3c(c(O)c1C2=O)C[C@@](O)(C(=O)CO)C[C@@H]3OC1CC(N(C)C)C(O)C(C)O1` (stereo not given in full): under “dose: 4.0 mg/kg/injection, schedule: Q01DX009 (ip), vehicle: saline”, the survivor count is given as 10 of 10.
For the compound `C/C=C1/C(=O)O[C@]23C=C[C@@H]4C(C(=O)OC)=CO[C@H](O[C@@H]12)[C@@H]43`, the survivor count (dose: 30.0 mg/kg/injection, schedule: Q01DX009 (ip), vehicle: Klucel (hydroxypropylcellulose) (HPC)) is on record as 6 of 10.
For `CCc1nc(N)nc(N)c1-c1ccc(Cl)c(N=[N+]=[N-])c1`, the T/C (dose: 100.0 mg/kg/injection, schedule: Q01DX009 (ip), vehicle: distilled water + Tween-80) was 126 and 142 % of control [9 of 10 alive]; the T/C (dose: 200.0 mg/kg/injection, schedule: Q01DX009 (ip), vehicle: distilled water + Tween-80) is 140 % of control. Besides, the survivor count (dose: 400.0 mg/kg/injection, schedule: Q01DX009 (ip), vehicle: distilled water + Tween-80) was 10 of 10 and 9 of 9.
